According to the supplement of paper PMC7877785:
± gives the uncertainty stated by the source. The uncertainty is large for many entries.

Experiment: self-splicing fitness, log relative to wild type (ln ratio); higher = more splicing; Tetrahymena group I intron in knt gene, E. coli kanamycin selection, DiMSum; sequences stand for … in CUCUCU…GGAGGGAAAAGUUAUCAGGCAUGCACCUGGUAGCUAGUCUUUAAACCAAUAGAUUGCAUCGGUUUAAAAGGCAAGACCGUCAAAUUGCGGGAAAGGGGUCAACAGCCGUUCAGUACCAAGUCUCAGGGGAAACUUUGAGAUGGCCUUGCAAAGGGUAUGGUAAUAAGCUGACGGACAUGGUCCUAACCACGCAGCCAAGUCCUAAGUCAACAGAUCUUCUGUUGAUAUGGAUGCAGUUCACAGACUAAAUGUCGGUCGGGGAAGAUGUAUUCUUCUCAUAAGAUAUAGUCGGACCUCUCCUUAAUGGGAGCUAGCGGAUGAAGUGAUGCAACACUGGAGCCGCUGGGAACUAAUUUGUAUGCGAAAGUAUAUUGAUUAGUUUUGGAGUACUCGUGGUCG
Method in brief: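 A randomised library covering all eight P1ex-region intron nucleotides was built with the intron in the knt kanamycin-resistance gene on pET-22b(+) and held in E. coli BL21(DE3). Cells were grown overnight at 37°C or 30°C on LB agar, with or without 25 μg/mL kanamycin, plus 100 μg/mL carbenicillin, 50 μM IPTG and 0.2% rhamnose, and pooled colonies were amplicon-sequenced on an Illumina HiSeq 2500. DiMSum fitness is the error-weighted combination of wild-type-normalised replicate fold changes, kanamycin versus none.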

Row | Sequence | self-splicing fitness (ln) (37 °C) | self-splicing fitness (ln) (30 °C)
1 | AGAGAGCAAUAUUACGCCCC | -0.595 ± 1.4 | –
2 | GCAGAGCAAUAUUACGAAUG | -2.67 ± 0.75 | –
3 | AUAGAGCAAUAUUACGAGAG | -1.86 ± 0.52 | -3.61 ± 0.6
4 | GUACAGCAAUAUUACGUGAU | -0.556 ± 0.07 | -2.88 ± 0.07
5 | CUCAAGCAAUAUUACGACUC | -3.11 ± 0.63 | -3.67 ± 0.6
6 | UACGAGCAAUAUUACGCCUU | -3.11 ± 0.61 | –
7 | AGUAAGCAAUAUUACGUCGU | -0.496 ± 0.12 | -2.12 ± 0.13
8 | AAGGAGCAAUAUUACGAUUA | – | -3.64 ± 0.74
9 | CUCGAGCAAUAUUACGGGAG | – | -3.51 ± 0.77
10 | UUGUAGCAAUAUUACGGCAU | 0.641 ± 0.11 | -0.835 ± 0.096
11 | GGGUAGCAAUAUUACGACUC | 0.0466 ± 0.63 | -3.32 ± 0.78
12 | GAUGAGCAAUAUUACGAGAU | – | -4.04 ± 1.1
13 | UUUCAGCAAUAUUACGAUCC | – | -3.32 ± 0.65
14 | ACGGAGCAAUAUUACGCCCU | -1 ± 0.78 | -3.02 ± 0.77
15 | CUCAAGCAAUAUUACGGCCC | -0.47 ± 0.68 | –
16 | CCCGAGCAAUAUUACGCCCU | – | -2.66 ± 0.66
17 | UACUAGCAAUAUUACGGAGG | -1.28 ± 0.13 | -2.77 ± 0.17
18 | GCGAAGCAAUAUUACGGGCC | – | -2.53 ± 0.54
19 | AGACAGCAAUAUUACGAGAC | -1.59 ± 0.37 | -2.31 ± 0.58
20 | GUUGAGCAAUAUUACGAAGC | – | -3.27 ± 0.79
21 | UUCAAGCAAUAUUACGCCGC | -1.4 ± 0.55 | -4.93 ± 1
22 | CCUUAGCAAUAUUACGAGUC | – | -3.9 ± 1
23 | AUUGAGCAAUAUUACGCCAG | -2.09 ± 0.64 | -4 ± 1
24 | UCACAGCAAUAUUACGAAUC | – | -3.53 ± 0.6
25 | UCCGAGCAAUAUUACGACCC | -2.39 ± 1.1 | –
26 | CUUAAGCAAUAUUACGAGAC | – | -3.91 ± 0.6

Row | Sequence | self-splicing fitness (ln) (37 °C) | self-splicing fitness (ln) (30 °C)
27 | AGGGAGCAAUAUUACGGGAA | -2.58 ± 0.37 | -1.37 ± 0.38
28 | CAUAAGCAAUAUUACGGGUG | -1.17 ± 0.078 | -2.3 ± 0.08
29 | UAAGAGCAAUAUUACGAACG | – | -4.79 ± 1
30 | CAAGAGCAAUAUUACGCCCA | – | -3.06 ± 1.1
31 | GAGUAGCAAUAUUACGUUCC | -1.24 ± 0.55 | –
32 | UAUUAGCAAUAUUACGCCAG | 0.158 ± 0.54 | –
33 | GCAUAGCAAUAUUACGCCGC | – | -5.03 ± 0.71
34 | GUAUAGCAAUAUUACGCCUU | -0.499 ± 0.24 | -2.11 ± 0.29
35 | UAGUAGCAAUAUUACGAGGC | -3.27 ± 0.6 | –
36 | UUGGAGCAAUAUUACGCUAA | -0.188 ± 0.52 | -2.18 ± 0.85
37 | CAAAAGCAAUAUUACGUGGU | -2.49 ± 0.11 | -3.65 ± 0.11
38 | AGUCAGCAAUAUUACGGGGG | -2.6 ± 0.22 | -3.61 ± 0.21
39 | GUCAAGCAAUAUUACGGAUG | -0.795 ± 0.11 | -2.64 ± 0.12
40 | AAUUAGCAAUAUUACGGCCU | 0.38 ± 0.16 | -0.324 ± 0.097
41 | ACUUAGCAAUAUUACGCUGA | -2.05 ± 0.69 | -2.63 ± 0.49
42 | CCCGAGCAAUAUUACGGGAC | -1.89 ± 0.19 | -3.05 ± 0.18
43 | UGGUAGCAAUAUUACGCGAC | – | -1.83 ± 0.59
44 | UAUAAGCAAUAUUACGUCCA | 0.113 ± 0.18 | -1.23 ± 0.12
45 | GUGGAGCAAUAUUACGUUCC | -1.2 ± 0.75 | –
46 | CGUAAGCAAUAUUACGAUAC | – | -3.84 ± 0.6
47 | GGACAGCAAUAUUACGACCC | 0.0981 ± 1.2 | –
48 | CGGGAGCAAUAUUACGACAA | -1.69 ± 0.84 | -2.18 ± 0.84
49 | CCGGAGCAAUAUUACGCUCU | -1.88 ± 1.2 | –
50 | GCGUAGCAAUAUUACGUCGG | -3.18 ± 0.24 | -2.69 ± 0.21
51 | UAGGAGCAAUAUUACGGAGU | -2.56 ± 0.54 | –
52 | GCAGAGCAAUAUUACGUCGA | – | -4.03 ± 0.73

Row | Sequence | self-splicing fitness (ln) (37 °C) | self-splicing fitness (ln) (30 °C)
53 | CGUCAGCAAUAUUACGGAAG | 0.304 ± 0.12 | -0.632 ± 0.088
54 | GGGGAGCAAUAUUACGAAGA | -1.14 ± 0.81 | -2.42 ± 1.2
55 | AAUAAGCAAUAUUACGUAAC | – | -3.86 ± 0.54
56 | CGCCAGCAAUAUUACGGGCG | – | -4.97 ± 0.58
57 | UUACAGCAAUAUUACGAAAC | -2.49 ± 0.41 | -2.85 ± 0.33
58 | CGCUAGCAAUAUUACGUUAA | -2.72 ± 0.62 | -4.81 ± 0.58
59 | GGCGAGCAAUAUUACGAGAG | -2.54 ± 0.33 | -3.79 ± 0.39
60 | CUUGAGCAAUAUUACGGCAU | -1.93 ± 0.28 | -3.69 ± 0.52
61 | AGCGAGCAAUAUUACGGAUU | – | -3.13 ± 0.61
62 | CUACAGCAAUAUUACGCUGA | -4 ± 0.59 | –
63 | CUUCAGCAAUAUUACGCAUA | -1.82 ± 0.17 | -4.27 ± 0.37
64 | UCCGAGCAAUAUUACGCUAA | -2.86 ± 0.32 | -3.34 ± 0.52
65 | GCGGAGCAAUAUUACGGCAG | -0.595 ± 1.4 | –
66 | UCUAAGCAAUAUUACGGUUG | -2.61 ± 0.18 | -2.82 ± 0.15
67 | UGCGAGCAAUAUUACGCUCA | – | -3.17 ± 1
68 | UUUCAGCAAUAUUACGAACC | – | -2.37 ± 0.64
69 | AAGAAGCAAUAUUACGGGGC | – | -4.79 ± 0.59
70 | CAGCAGCAAUAUUACGAAGC | -2.54 ± 1.1 | –
71 | CUUAAGCAAUAUUACGAGUU | – | -4.5 ± 0.52
72 | AAGGAGCAAUAUUACGCCGC | – | -4.55 ± 0.59
73 | GCGAAGCAAUAUUACGAAAA | -2.94 ± 0.6 | –
74 | ACGUAGCAAUAUUACGCGAU | -1.5 ± 0.11 | -3.01 ± 0.14
75 | GAGUAGCAAUAUUACGAAAG | – | -3.7 ± 0.6
76 | AAGGAGCAAUAUUACGACCC | -1.15 ± 0.66 | -0.868 ± 1.4

Reformatted as tab-separated lines: entries from further up.
Row	Sequence	self-splicing fitness (ln) (37 °C)	self-splicing fitness (ln) (30 °C)
60	CUUGAGCAAUAUUACGGCAU	-1.93 ± 0.28	-3.69 ± 0.52
61	AGCGAGCAAUAUUACGGAUU	–	-3.13 ± 0.61
66	UCUAAGCAAUAUUACGGUUG	-2.61 ± 0.18	-2.82 ± 0.15
67	UGCGAGCAAUAUUACGCUCA	–	-3.17 ± 1
74	ACGUAGCAAUAUUACGCGAU	-1.5 ± 0.11	-3.01 ± 0.14
